The target in the assay is heterogeneous nuclear ribonucleoprotein K (human (endogenous in A549)) (UniProt P61978). The assay is described as follows: affinity purification with mass spectrometry; A549 cell lysate (1 mg) immunoprecipitated with anti-hnRNP K antibody or isotype matched IgG, Protein A/G Plus-agarose, 4 °C; SDS-PAGE, silver staining, bands cut out, in-gel digestion, LC-MS/MS.

The chains behind the UniProt entries cited, without tags or fusion partners. Where a name states a change or a piece, a line headed by the entry shows the natural chain unless it says otherwise.
UniProt P46821: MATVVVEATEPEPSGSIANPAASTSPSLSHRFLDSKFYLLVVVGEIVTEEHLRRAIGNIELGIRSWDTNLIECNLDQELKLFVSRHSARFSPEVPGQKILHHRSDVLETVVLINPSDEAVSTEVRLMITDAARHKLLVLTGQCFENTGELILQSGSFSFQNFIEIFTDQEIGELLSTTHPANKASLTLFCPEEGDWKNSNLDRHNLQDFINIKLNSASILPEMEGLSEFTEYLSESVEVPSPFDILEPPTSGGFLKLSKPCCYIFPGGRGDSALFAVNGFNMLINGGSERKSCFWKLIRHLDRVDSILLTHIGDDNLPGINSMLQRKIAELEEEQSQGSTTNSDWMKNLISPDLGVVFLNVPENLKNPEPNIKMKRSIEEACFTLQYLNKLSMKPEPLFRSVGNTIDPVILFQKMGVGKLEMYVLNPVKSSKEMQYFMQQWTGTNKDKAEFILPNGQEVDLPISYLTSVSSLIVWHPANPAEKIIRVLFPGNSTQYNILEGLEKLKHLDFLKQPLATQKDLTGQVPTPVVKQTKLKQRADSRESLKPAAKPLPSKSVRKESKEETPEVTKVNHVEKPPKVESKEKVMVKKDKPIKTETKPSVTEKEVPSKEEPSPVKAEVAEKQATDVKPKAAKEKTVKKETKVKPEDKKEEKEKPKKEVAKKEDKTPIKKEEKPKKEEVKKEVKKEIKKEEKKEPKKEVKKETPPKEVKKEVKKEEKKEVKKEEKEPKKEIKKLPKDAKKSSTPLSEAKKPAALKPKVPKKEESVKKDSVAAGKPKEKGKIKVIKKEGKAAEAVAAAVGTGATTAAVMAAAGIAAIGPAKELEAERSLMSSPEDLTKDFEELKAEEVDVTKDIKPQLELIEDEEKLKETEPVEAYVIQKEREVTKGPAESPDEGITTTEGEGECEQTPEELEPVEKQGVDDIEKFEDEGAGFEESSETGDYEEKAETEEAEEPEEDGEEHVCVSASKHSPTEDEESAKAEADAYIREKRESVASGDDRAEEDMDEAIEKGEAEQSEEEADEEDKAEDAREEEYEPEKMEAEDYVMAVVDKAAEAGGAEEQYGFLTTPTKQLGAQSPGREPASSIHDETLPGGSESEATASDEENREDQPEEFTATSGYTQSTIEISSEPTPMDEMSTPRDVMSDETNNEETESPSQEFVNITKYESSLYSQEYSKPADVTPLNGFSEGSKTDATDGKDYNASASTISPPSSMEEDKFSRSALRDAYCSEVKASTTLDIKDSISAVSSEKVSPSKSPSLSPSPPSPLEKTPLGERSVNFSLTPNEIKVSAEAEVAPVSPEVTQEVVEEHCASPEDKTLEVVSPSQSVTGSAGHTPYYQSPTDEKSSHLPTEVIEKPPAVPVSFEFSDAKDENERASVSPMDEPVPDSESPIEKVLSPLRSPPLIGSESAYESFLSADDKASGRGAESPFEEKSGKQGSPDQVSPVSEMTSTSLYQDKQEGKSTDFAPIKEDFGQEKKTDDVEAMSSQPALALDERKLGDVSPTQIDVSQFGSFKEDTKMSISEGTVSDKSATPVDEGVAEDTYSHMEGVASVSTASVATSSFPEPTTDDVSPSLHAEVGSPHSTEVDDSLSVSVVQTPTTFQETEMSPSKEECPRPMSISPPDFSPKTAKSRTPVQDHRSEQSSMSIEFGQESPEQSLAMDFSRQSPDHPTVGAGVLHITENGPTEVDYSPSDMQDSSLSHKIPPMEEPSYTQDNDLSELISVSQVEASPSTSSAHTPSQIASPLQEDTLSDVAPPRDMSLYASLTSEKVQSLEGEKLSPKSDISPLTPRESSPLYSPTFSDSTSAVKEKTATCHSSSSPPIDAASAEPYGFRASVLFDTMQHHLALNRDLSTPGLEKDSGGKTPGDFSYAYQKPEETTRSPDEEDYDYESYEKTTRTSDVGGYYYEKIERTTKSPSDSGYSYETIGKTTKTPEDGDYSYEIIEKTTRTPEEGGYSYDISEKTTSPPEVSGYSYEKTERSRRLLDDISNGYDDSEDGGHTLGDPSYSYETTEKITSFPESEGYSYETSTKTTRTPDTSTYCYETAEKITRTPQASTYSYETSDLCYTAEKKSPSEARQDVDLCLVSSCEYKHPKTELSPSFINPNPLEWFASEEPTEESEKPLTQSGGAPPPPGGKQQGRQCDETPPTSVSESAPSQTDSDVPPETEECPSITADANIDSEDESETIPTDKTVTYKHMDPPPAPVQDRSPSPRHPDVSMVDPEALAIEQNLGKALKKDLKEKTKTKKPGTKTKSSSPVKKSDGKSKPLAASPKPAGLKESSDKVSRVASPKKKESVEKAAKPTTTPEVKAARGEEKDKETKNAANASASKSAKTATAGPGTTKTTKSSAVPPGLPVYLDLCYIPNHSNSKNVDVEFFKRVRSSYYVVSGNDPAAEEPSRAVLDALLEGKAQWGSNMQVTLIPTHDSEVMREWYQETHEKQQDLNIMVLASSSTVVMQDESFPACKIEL

These are yes or no findings as the source states them, for the method shown. Binding seen in cells or lysates may run through a third protein. Here binding means that the protein was enriched with, or labelled near, the bait; the list need not be complete.

As for “microtubule-associated protein 1B light chain (MAP 1B-LC1) (from UniProt P46821)”, the binding result was “binds”.

These data come from publication PMC6731588.
